Drawing on US20010029030A1, this text covers binding for one molecule.

The assay concerns the target T1, T7-epitope tagged FADD, Q13158.
T1 chain: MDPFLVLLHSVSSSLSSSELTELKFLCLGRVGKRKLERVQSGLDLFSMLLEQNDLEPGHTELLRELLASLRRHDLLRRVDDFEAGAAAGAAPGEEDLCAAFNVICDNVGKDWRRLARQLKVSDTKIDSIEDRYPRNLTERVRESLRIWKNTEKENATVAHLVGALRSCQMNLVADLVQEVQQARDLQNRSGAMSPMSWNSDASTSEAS
Briefly: co-immunoprecipitation from transfected 293 cells (anti-Flag IP, T7 immunoblot). To be noted: remark: other sources report otherwise.

Results are given in words; binding and its absence hold for the method and conditions named. Binding seen in cells or lysates may run through a third protein. Some entries that bind do so weakly or less than the wild type. Where a sequence is shown, tags or fusion partners need not be part of it.

B1: Flag-epitope tagged Fas (full length), P25445 26-335 (receptor, UniProt P25445 26-335, looked up, not shown: small tags and cut ends)
chain: QVTDINSKGLELRKTVTTVETQNLEGLHHDGQFCHKPCPPGERKARDCTVNGDEPDCVPCQEGKEYTDKAHFSSKCRRCRLCDEGHGLEVEINCTRTQNTKCRCKPNFFCNSTVCEHCDPCTKCEHGIIKECTLTSNTKCKEEGSRSNLGWLCLLLLPIPLIVWVKRKEVQKTCRKHRKENQGSHESPTLNPETVAINLSDVDLSKYITTIAGVMTLSQVKGFVRKNGVNEAKIDEIKNDNVQDTAEQKVQLLRNWHQLHGKKEAYDTLIKDLKKANLCTLAEKIQTIILKDITSDSENSNFRNEIQSLV
As to B1, the binding entry was “binds”.
